The target in this assay is T1, insulin receptor substrate 4 (IRS4) (human (endogenous in HEK293)) (UniProt O14654).
T1 sequence: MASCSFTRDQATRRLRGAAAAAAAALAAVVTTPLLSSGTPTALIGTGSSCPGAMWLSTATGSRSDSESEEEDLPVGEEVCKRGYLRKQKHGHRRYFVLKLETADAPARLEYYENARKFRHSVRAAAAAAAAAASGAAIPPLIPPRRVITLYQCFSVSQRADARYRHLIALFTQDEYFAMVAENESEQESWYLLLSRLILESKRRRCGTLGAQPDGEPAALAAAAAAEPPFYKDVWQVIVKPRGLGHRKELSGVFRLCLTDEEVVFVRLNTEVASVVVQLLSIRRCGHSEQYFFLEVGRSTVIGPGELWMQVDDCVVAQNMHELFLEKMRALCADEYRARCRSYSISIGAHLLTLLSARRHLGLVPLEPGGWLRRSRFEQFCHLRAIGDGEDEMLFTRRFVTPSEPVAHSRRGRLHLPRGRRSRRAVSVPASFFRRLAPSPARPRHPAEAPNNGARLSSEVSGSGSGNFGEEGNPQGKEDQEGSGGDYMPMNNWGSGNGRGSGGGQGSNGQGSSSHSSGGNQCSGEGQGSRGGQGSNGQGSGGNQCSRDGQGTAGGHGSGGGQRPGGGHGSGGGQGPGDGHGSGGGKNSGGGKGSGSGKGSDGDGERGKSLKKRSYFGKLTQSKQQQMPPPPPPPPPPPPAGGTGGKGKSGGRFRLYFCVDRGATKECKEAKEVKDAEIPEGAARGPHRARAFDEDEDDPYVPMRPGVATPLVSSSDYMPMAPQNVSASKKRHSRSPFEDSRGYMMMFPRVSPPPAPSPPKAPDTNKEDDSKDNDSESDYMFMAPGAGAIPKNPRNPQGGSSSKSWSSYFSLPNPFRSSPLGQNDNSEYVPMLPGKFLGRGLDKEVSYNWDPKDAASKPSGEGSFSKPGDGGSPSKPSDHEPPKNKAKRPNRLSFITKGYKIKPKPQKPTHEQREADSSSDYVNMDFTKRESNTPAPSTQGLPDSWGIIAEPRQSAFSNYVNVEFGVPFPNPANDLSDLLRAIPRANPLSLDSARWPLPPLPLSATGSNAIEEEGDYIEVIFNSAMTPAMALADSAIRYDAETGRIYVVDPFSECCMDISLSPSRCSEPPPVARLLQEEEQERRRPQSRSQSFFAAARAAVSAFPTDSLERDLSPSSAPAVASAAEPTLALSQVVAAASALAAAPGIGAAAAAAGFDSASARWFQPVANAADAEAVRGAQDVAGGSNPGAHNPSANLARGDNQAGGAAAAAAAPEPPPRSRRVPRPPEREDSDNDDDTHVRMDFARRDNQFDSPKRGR
In words: co-IP.

Chains of the proteins cited; added tags and fusions are not shown.
UniProt Q9BX84: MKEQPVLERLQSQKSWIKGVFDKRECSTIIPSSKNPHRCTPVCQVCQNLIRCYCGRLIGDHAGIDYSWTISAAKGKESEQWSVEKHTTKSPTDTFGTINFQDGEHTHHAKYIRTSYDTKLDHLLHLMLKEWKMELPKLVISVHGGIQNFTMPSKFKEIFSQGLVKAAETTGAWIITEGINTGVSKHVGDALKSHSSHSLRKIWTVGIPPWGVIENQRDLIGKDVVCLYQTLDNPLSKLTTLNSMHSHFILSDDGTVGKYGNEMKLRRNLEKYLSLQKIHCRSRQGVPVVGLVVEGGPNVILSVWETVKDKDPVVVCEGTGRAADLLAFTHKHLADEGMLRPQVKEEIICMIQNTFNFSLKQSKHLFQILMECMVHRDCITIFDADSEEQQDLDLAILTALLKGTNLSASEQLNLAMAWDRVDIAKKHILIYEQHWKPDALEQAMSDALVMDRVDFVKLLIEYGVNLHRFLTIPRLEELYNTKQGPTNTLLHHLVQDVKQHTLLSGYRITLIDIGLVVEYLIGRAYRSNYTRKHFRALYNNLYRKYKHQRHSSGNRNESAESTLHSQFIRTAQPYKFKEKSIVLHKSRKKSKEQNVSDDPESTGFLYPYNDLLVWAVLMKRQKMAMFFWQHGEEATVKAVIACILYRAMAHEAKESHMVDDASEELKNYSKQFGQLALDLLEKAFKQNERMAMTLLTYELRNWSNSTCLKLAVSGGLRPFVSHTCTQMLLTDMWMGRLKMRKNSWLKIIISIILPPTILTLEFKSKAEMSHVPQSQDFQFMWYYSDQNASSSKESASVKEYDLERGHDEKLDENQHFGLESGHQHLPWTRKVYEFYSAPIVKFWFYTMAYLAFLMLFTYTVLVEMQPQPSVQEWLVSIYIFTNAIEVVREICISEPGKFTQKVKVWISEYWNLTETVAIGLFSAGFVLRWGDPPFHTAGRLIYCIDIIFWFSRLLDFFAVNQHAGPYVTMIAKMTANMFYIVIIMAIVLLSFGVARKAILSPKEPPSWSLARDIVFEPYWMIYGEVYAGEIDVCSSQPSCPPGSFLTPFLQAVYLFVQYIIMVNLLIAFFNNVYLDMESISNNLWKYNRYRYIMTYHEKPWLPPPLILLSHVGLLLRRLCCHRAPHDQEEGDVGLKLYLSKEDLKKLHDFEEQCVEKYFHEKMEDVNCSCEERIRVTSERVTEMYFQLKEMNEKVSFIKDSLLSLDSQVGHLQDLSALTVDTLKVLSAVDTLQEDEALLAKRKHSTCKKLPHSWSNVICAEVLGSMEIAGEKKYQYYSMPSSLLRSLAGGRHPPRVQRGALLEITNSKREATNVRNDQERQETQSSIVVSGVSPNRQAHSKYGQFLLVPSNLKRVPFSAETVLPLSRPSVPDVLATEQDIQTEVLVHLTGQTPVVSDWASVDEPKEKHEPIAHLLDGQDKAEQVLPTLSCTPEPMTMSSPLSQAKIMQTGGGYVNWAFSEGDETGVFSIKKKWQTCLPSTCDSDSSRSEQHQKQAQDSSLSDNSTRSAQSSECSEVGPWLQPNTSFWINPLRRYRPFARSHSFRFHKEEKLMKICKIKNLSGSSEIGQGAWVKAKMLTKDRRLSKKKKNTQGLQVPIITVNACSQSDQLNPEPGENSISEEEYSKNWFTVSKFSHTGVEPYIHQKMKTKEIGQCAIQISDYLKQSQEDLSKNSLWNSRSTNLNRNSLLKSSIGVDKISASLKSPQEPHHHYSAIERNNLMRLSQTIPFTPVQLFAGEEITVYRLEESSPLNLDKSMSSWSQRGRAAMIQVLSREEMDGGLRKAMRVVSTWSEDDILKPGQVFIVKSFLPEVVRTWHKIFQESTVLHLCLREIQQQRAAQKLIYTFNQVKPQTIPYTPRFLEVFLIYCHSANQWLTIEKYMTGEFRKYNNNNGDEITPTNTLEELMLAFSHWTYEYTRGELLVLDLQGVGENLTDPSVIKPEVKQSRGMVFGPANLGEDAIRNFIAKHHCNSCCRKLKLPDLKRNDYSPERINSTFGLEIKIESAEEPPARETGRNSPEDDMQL

These are yes or no findings as the source states them, for the method shown. Binding seen in cells or lysates may run through a third protein. Some results given as binding are weak or reduced against the parent protein; the word gives no strength.

With “TRPM6 (pcDNA pDEST53 TRPM6 plasmid) (from UniProt Q9BX84 1-2022)”, the binding result is “binds”.

Source of the values: article doi:10.1101/2022.10.01.510479.
